Laboratory results as given in PMC7360861.
Results are given in words; binding and its absence hold for the method and conditions named. In cells and extracts the contact can be indirect. Some entries that bind do so weakly or less than the wild type.

Protein sequences, listed by entry. Tags and fused reporters are not part of them. Residues count along the entry.
UniProt P02768, residues 25-609: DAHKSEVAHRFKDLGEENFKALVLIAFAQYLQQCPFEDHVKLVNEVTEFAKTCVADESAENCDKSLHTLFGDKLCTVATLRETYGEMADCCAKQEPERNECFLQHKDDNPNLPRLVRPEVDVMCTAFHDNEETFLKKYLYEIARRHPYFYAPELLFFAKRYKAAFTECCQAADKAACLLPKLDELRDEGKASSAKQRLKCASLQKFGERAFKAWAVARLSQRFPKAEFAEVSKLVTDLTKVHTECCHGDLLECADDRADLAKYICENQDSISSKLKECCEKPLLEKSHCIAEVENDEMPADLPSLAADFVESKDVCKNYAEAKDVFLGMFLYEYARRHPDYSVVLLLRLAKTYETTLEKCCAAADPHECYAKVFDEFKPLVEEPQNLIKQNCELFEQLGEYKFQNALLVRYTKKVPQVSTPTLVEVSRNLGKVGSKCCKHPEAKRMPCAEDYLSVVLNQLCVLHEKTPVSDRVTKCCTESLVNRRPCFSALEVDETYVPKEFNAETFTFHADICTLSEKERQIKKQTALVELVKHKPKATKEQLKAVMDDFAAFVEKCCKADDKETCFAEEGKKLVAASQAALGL

T1: secreted protein acidic and rich in cysteine (SPARC) (human (endogenous in HS578T)) (UniProt P09486)
T1 sequence: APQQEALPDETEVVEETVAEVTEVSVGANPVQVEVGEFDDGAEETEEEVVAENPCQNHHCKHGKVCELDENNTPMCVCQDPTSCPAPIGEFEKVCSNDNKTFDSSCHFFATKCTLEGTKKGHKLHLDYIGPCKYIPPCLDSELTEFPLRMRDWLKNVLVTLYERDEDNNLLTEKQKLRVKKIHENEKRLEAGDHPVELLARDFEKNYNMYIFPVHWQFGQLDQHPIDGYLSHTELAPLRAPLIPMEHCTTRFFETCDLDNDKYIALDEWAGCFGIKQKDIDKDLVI


Experiments:
[1] = target: T1, secreted protein acidic and rich in cysteine (SPARC) (human (endogenous in HS578T)); test: co-IP; 10 and 50 ug rHSA added to 500 ug HS578T cytosolic extract; immunoprecipitated with 4 ug anti-SPARC antibody, 16 h at 4 C; protein G-agarose; washed four times with cold PBS; Western blot with anti-HSA antibody; only the binder purified
[2] = target: recombinant Human Serum Albumin (rHSA) (human) (UniProt P02768); test: pull-down; rHSA covalently conjugated to MelaSil_Ag nanoparticles (100 ug) incubated in HS578T conditioned medium at 37 C under stirring for 24 h; washed three times with PBS; bound proteins eluted in Laemmli buffer, SDS-PAGE, Western blot with anti-SPARC antibody; only the target purified

| binding [1] | binding [2] | Molecule |
| --- | --- | --- |
| binds |  | recombinant Human Serum Albumin (rHSA) (from UniProt P02768 25-609) |
|  | binds | secreted protein acidic and rich in cysteine (SPARC) (protein, UniProt P09486 18-303) APQQEALPDETEVVEETVAEVTEVSVGANPVQVEVGEFDDGAEETEEEVVAENPCQNHHCKHGKVCELDENNTPMCVCQDPTSCPAPIGEFEKVCSNDNKTFDSSCHFFATKCTLEGTKKGHKLHLDYIGPCKYIPPCLDSELTEFPLRMRDWLKNVLVTLYERDEDNNLLTEKQKLRVKKIHENEKRLEAGDHPVELLARDFEKNYNMYIFPVHWQFGQLDQHPIDGYLSHTELAPLRAPLIPMEHCTTRFFETCDLDNDKYIALDEWAGCFGIKQKDIDKDLVI |
